Results deposited as PubChem BioAssay AID1259308 (NCATS, 2017).

- Test: 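Genes whose loss raises luciferase production in HEK293 cells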 (primary screen)
- System: human HEK293 embryonic kidney cells stably expressing firefly luciferase (HEK-CMV-Luc2-Hygro)
- Knock-down reagent: single siRNA against human genes, 0.8 pmol siRNA per well
- Duration: 72 h
- Measurement: 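Reporter luminescence and viable-cell signal on separate replicate plates, given as percent of non-targeting control and median/MAD z-scores, plus per-cell luciferase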
- Direction: total luciferase, z-score: higher = more reporter protein produced
- Hit rule: 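An siRNA counts as active if its total luciferase robust z-score exceeds 3; genes with two or more such siRNAs out of three were retested with fresh siRNAs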
- Meaning of the calls: active = raised luciferase; inactive = no rise
The deposit covers about 59,000 reagents; this is a part drawn at random. Over the whole deposit, about 1,510 (2.6%) were called active. 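Calls use total luciferase alone and ignore viability, so some active siRNAs may act by altering cell number.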 The numbers tell different reagents against one gene apart. Further read-outs or replicates are left out here.

total luciferase, z-score, by target gene and reagent
QTRT2 (queuine tRNA-ribosyltransferase accessory subunit 2): #1 0.205 inactive; #2 0.432 inactive; #3 1.04 inactive
ECHDC3 (enoyl-CoA hydratase domain containing 3): #1 6.52 active; #2 0.898 inactive; #3 1.19 inactive
PFKFB2 (6-phosphofructo-2-kinase/fructose-2,6-biphosphatase 2): #1 0.189 inactive; #2 -1.11 inactive; #3 -0.811 inactive
ZNF93 (zinc finger protein 93): #1 -0.309 inactive; #2 0.736 inactive; #3 0.887 inactive
ZBTB8OSP2: #1 0.0162 inactive; #2 0.362 inactive; #3 0.482 inactive
ZNF234 (zinc finger protein 234): #1 0.412 inactive; #2 0.311 inactive; #3 -0.401 inactive
ZSCAN5A (zinc finger and SCAN domain containing 5A): #1 1.37 inactive; #2 1.04 inactive; #3 0.68 inactive
KCTD8 (potassium channel tetramerization domain containing 8): #1 1.89 inactive; #2 -2.15 inactive; #3 -1.22 inactive
INHBB (inhibin subunit beta B): #1 -2.12 inactive; #2 -0.0269 inactive; #3 1.81 inactive
HSPB3 (heat shock protein family B (small) member 3): #1 0.572 inactive; #2 -0.413 inactive; #3 1.77 inactive
SENP1 (SUMO specific peptidase 1): #1 -0.943 inactive; #2 0.881 inactive; #3 0.454 inactive
TSPAN18 (tetraspanin 18): #1 -0.0519 inactive; #2 0.17 inactive; #3 -0.239 inactive
C1orf167 (chromosome 1 open reading frame 167): #1 1.21 inactive; #2 2.12 inactive; #3 0.799 inactive
CSRNP1 (cysteine and serine rich nuclear protein 1): #1 -1.95 inactive; #2 -0.691 inactive; #3 -0.468 inactive
MS4A8 (membrane spanning 4-domains A8): #1 1.2 inactive; #2 -0.585 inactive; #3 -0.697 inactive
TRAF1 (TNF receptor associated factor 1): #1 -0.207 inactive; #2 2.58 inactive; #3 -0.497 inactive
SLC6A11: #1 -0.522 inactive; #2 -0.0795 inactive; #3 1.26 inactive
FAM53A (family with sequence similarity 53 member A): #1 0.0357 inactive; #2 0.489 inactive; #3 0.945 inactive
YTHDC1 (YTH N6-methyladenosine RNA binding protein C1): #1 -1.03 inactive; #2 -0.336 inactive; #3 -0.908 inactive
